Some of the results follow.
Compound: C1=CC=C(C=C1)C2=NC(=C(N2)C3=CC=NC=C3)C4=CC(=C(C=C4)Cl)O
Test: log2 fold change, soluble protein after heating vs DMSO (PISA); higher = thermal stabilisation; K562 cells, 10 uM, 30 min; active = over 0.2 and 3.5 SD of the protein, either way, in both replicates (recomputed)
In short: (§1)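 K562 cells at 2×10^6 cells/mL were given 10 μM compound for 30 min. Aliquots then went through 3 min of heating across 48°C-58°C, were pooled, and were extracted in PBS with 0.5% NP-40 at 4°C, and the supernatant after 21,000xg for 90 min was quantified by TMTpro 16plex LC-MS/MS with channel sums equalised. Thermal stability relative to control samples, from duplicates, is given as log2 fold change.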

Amino acid sequences for entries named in this document (tags omitted). A change or cut given only in a name is not applied to a line headed by its entry.
UniProt P23526: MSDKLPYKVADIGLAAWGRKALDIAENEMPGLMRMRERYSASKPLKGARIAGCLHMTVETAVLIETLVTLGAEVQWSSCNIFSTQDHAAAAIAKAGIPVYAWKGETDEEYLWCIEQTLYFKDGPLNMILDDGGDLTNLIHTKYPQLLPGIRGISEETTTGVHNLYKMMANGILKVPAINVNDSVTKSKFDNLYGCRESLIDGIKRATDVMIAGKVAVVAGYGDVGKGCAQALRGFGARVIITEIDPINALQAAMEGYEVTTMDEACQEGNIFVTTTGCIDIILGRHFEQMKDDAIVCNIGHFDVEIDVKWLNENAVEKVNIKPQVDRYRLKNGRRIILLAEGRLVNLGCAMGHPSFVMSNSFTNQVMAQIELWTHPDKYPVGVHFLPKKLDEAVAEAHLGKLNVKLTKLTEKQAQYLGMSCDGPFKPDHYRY
UniProt P31751: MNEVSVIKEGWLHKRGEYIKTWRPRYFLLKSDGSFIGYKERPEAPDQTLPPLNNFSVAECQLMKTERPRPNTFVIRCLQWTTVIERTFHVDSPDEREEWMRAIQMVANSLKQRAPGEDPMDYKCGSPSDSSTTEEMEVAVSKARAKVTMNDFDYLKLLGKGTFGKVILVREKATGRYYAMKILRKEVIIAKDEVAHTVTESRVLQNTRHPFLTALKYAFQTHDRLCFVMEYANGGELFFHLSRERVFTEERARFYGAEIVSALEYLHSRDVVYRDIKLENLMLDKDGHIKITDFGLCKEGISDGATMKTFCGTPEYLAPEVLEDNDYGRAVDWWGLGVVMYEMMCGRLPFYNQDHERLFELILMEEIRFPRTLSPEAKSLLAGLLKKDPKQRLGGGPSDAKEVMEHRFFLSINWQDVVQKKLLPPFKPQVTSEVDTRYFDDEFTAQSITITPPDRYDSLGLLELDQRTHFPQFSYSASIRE
UniProt P30837: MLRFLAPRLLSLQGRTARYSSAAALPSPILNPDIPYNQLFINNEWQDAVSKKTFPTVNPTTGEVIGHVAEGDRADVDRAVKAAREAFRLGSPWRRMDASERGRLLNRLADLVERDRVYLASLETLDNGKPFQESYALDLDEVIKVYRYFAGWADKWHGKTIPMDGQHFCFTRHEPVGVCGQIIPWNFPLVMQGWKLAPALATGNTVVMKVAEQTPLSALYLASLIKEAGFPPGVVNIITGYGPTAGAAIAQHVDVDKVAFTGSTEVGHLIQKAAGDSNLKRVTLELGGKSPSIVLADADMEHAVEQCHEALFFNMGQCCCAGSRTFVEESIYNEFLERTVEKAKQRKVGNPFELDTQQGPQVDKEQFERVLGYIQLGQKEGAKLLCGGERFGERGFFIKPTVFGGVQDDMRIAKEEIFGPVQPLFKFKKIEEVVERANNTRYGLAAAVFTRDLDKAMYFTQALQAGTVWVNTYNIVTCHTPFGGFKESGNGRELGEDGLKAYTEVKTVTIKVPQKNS
UniProt Q8WYP5: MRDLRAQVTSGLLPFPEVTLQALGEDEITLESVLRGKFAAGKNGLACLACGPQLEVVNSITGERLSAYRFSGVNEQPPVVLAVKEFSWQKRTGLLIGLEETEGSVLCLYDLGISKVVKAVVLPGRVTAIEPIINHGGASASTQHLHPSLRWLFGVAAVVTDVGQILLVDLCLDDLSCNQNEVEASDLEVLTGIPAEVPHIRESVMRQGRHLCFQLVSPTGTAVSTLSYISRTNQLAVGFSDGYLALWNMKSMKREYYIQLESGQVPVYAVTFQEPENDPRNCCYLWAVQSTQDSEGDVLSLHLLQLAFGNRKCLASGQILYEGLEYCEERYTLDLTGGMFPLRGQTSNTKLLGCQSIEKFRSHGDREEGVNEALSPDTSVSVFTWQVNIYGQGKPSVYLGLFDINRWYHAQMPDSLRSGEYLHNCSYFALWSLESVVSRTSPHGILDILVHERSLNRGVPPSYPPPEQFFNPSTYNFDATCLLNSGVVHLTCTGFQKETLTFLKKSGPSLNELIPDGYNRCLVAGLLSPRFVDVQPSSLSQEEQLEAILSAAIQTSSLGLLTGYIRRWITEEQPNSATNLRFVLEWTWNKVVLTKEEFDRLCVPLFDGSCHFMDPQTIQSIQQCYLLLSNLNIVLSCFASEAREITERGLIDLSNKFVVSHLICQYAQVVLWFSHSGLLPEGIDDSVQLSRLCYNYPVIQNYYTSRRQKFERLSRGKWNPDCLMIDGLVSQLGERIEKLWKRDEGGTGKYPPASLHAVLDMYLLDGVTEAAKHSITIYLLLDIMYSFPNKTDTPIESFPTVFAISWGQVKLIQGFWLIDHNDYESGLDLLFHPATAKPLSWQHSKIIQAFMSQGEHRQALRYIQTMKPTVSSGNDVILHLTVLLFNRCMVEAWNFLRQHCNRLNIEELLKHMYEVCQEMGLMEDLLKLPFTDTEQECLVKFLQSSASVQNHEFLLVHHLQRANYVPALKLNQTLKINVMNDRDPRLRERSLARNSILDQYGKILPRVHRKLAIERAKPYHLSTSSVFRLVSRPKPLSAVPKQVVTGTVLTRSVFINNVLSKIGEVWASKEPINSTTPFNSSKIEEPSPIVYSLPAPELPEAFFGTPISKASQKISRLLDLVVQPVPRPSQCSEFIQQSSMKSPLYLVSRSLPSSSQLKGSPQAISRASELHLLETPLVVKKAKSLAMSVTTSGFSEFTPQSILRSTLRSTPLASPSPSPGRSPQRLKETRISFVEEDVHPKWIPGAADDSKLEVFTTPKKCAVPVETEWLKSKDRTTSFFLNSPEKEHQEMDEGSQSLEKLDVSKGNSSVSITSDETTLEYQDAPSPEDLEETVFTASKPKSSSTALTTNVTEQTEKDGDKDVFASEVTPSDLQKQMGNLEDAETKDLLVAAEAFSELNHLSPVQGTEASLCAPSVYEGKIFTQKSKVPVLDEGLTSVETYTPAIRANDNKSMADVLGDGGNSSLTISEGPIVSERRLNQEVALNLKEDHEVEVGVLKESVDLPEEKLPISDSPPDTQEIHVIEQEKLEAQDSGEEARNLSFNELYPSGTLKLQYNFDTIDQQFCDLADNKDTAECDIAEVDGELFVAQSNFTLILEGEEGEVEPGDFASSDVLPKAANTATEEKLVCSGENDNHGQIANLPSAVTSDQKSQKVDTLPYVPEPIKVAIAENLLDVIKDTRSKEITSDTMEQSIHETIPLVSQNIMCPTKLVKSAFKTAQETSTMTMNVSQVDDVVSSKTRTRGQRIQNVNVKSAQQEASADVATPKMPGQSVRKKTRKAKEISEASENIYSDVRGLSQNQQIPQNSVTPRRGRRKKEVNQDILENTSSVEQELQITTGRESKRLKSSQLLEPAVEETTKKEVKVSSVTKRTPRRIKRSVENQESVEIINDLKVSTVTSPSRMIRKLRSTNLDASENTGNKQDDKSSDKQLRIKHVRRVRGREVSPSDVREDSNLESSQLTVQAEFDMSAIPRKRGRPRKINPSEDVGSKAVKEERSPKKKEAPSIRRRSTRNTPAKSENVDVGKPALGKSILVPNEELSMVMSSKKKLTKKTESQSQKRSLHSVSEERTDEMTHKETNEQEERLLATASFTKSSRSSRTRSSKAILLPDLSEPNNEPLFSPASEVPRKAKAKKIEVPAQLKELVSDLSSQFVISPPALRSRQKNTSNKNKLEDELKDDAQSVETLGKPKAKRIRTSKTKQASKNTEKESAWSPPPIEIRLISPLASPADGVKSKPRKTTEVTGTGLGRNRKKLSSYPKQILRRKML
UniProt Q13155: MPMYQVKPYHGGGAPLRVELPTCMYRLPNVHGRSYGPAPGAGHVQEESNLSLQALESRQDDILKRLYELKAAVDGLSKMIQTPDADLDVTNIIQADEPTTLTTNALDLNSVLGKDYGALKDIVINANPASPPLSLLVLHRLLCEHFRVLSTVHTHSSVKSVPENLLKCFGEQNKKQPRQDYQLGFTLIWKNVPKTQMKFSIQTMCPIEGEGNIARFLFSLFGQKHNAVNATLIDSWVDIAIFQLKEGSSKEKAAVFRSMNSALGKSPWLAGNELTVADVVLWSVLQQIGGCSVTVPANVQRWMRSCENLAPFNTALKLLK
UniProt Q9NP73: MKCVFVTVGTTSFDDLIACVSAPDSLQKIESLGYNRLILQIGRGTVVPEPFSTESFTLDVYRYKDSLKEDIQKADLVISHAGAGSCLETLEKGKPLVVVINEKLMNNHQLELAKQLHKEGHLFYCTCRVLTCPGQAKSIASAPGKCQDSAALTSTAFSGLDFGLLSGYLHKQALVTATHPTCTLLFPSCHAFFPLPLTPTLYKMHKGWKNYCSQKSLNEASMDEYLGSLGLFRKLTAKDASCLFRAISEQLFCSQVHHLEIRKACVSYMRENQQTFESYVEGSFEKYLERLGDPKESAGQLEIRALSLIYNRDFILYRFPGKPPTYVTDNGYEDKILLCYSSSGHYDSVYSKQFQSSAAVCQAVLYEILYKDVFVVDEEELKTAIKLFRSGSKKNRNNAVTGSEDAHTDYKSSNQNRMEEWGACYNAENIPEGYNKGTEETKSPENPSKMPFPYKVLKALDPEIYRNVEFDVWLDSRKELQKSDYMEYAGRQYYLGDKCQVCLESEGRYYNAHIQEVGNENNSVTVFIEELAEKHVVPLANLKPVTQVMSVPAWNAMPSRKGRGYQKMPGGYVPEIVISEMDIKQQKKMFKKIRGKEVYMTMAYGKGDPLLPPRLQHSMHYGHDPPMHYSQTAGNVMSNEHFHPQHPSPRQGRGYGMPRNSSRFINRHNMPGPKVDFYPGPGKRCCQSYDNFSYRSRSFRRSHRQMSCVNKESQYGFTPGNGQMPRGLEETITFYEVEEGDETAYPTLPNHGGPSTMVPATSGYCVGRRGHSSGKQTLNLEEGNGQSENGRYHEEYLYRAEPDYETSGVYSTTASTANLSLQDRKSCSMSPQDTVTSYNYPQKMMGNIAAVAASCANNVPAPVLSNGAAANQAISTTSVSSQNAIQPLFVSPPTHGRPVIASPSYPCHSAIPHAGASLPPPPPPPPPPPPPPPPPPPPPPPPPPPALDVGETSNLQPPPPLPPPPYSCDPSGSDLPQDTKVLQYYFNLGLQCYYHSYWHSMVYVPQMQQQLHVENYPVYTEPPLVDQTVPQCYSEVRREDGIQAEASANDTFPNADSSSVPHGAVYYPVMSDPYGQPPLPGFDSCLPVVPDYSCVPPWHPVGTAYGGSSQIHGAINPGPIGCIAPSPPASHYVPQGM
UniProt P14550: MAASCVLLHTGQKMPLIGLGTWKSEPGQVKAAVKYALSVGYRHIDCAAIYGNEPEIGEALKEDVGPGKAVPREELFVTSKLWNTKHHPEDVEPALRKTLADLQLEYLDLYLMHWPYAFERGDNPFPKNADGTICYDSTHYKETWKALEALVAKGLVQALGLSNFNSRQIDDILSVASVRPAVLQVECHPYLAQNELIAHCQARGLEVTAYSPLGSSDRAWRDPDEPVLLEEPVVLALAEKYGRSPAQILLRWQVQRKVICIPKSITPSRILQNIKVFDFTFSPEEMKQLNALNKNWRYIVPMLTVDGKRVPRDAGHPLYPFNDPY
UniProt Q9BRQ8: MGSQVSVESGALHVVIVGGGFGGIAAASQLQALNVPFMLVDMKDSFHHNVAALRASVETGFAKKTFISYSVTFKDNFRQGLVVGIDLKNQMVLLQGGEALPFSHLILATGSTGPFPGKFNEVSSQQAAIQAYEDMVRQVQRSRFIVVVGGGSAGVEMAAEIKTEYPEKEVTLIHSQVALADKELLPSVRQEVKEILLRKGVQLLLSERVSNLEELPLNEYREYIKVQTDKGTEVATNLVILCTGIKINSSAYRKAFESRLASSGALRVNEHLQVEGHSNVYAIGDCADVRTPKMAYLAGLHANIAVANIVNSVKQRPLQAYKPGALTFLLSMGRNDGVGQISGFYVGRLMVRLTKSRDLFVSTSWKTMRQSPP
UniProt Q96SZ5, whole entry, looked up: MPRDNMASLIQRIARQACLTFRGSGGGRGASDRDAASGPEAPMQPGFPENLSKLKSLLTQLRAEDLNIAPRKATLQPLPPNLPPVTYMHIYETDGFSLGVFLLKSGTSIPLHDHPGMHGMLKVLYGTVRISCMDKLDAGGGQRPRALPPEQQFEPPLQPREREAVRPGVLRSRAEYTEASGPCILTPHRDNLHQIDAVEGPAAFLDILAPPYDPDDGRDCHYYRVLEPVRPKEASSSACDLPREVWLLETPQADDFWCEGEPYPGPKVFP
UniProt Q12904: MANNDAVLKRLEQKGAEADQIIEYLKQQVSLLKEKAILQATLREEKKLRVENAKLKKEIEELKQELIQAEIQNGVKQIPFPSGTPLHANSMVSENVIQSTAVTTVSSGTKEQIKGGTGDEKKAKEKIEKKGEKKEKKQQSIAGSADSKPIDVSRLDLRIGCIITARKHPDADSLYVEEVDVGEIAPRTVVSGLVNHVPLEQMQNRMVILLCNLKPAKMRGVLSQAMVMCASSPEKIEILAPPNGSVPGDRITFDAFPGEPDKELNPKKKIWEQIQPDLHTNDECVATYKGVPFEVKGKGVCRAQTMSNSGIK

log2 fold change, inactive:
ALKBH4 (UniProt Q9NXW9) 0.032
AMD1 (UniProt P17707) 0.127
AFDN isoform 5 (UniProt P55196) 0.012
ALDH5A1 isoform 2 (UniProt P51649) -0.004
ADK (UniProt P55263) 0.035
AHCYL1 (UniProt O43865) 0.09
AHCY (UniProt P23526) 0.007
AGPS (UniProt O00116) 0.175
ALDH1A1 (UniProt P00352) 0.048
AKT2 (UniProt P31751) 0.019
AHSA1 (UniProt O95433) 0.013
ALDH2 (UniProt P05091) -0.019
AGPAT3 isoform 3 (UniProt Q9NRZ7) 0.04
AK2 isoform 2 (UniProt P54819) -0.045
ALKBH3 (UniProt Q96Q83) -0.056
ADPGK (UniProt Q9BRR6) 0.03
ALDH1B1 (UniProt P30837) 0.044
AIDA (UniProt Q96BJ3) 0.013
AHCTF1 isoform 2 (UniProt Q8WYP5) -0.029
ALG14 (UniProt Q96F25) 0.053
AK4 (UniProt P27144) 0.023
AIMP2 (UniProt Q13155) -0.027
ALG13 (UniProt Q9NP73) 0.001
AKR1A1 (UniProt P14550) -0.017
AIFM2 (UniProt Q9BRQ8) 0.041
AKR1B1 (UniProt P15121) -0.01
ADO (UniProt Q96SZ5) -0.001
ADH5 (UniProt P11766) -0.039
AIMP1 isoform 2 (UniProt Q12904) -0.017
ALDOA isoform 2 (UniProt P04075) 0.008
ADPRHL2 (UniProt Q9NX46) 0.019
ALG9 isoform 3 (UniProt Q9H6U8) 0.026

Compound: C1=CC=C2C(=C1)C3=NNC4=CC=CC(=C43)C2=O
Test: as above
In short: as §1

log2 fold change, inactive:
ALKBH4 (UniProt Q9NXW9) -0.006
AMD1 (UniProt P17707) 0.035
AFDN isoform 5 (UniProt P55196) -0.005
ALDH5A1 isoform 2 (UniProt P51649) -0.012
ADK (UniProt P55263) 0.042
AHCYL1 (UniProt O43865) 0.118
AHCY (UniProt P23526) 0.005
AGPS (UniProt O00116) 0.043
ALDH1A1 (UniProt P00352) 0.088
AKT2 (UniProt P31751) 0.028
AHSA1 (UniProt O95433) 0.039
ALDH2 (UniProt P05091) 0.097
AGPAT3 isoform 3 (UniProt Q9NRZ7) 0.006
AK2 isoform 2 (UniProt P54819) 0.015
ALKBH3 (UniProt Q96Q83) 0.052
ADPGK (UniProt Q9BRR6) -0.066
ALDH1B1 (UniProt P30837) 0.065
AIDA (UniProt Q96BJ3) -0.02
AHCTF1 isoform 2 (UniProt Q8WYP5) -0.02
ALG14 (UniProt Q96F25) 0.002
AK4 (UniProt P27144) 0.006
AIMP2 (UniProt Q13155) 0.026
ALG13 (UniProt Q9NP73) 0.014
AKR1A1 (UniProt P14550) 0.01
AIFM2 (UniProt Q9BRQ8) 0.172
AKR1B1 (UniProt P15121) -0.057
ADO (UniProt Q96SZ5) 0.055
ADH5 (UniProt P11766) 0.002
AIMP1 isoform 2 (UniProt Q12904) -0.027
ALDOA isoform 2 (UniProt P04075) 0
ADPRHL2 (UniProt Q9NX46) 0.049
ALG9 isoform 3 (UniProt Q9H6U8) -0.046

Compound: C1CCN(C1)C(=O)NC2=CC=CC(=C2)NC3=NC=C(C(=N3)NCCC4=CN=CN4)Br
Test: as above
In short: as §1

log2 fold change, inactive:
ALKBH4 (UniProt Q9NXW9) -0.074
AMD1 (UniProt P17707) -0.224
AFDN isoform 5 (UniProt P55196) -0.049
ALDH5A1 isoform 2 (UniProt P51649) -0.01
ADK (UniProt P55263) -0.032
AHCYL1 (UniProt O43865) 0.077
AHCY (UniProt P23526) -0.026
AGPS (UniProt O00116) -0.01
ALDH1A1 (UniProt P00352) -0.047
AKT2 (UniProt P31751) -0.068
AHSA1 (UniProt O95433) -0.006
ALDH2 (UniProt P05091) -0.041
AGPAT3 isoform 3 (UniProt Q9NRZ7) 0
AK2 isoform 2 (UniProt P54819) 0.025
ALKBH3 (UniProt Q96Q83) -0.04
ADPGK (UniProt Q9BRR6) -0.021
ALDH1B1 (UniProt P30837) -0.028
AIDA (UniProt Q96BJ3) -0.056
AHCTF1 isoform 2 (UniProt Q8WYP5) -0.053
ALG14 (UniProt Q96F25) -0.061
AK4 (UniProt P27144) -0.005
AIMP2 (UniProt Q13155) 0.069
ALG13 (UniProt Q9NP73) -0.022
AKR1A1 (UniProt P14550) 0.016
AIFM2 (UniProt Q9BRQ8) -0.045
AKR1B1 (UniProt P15121) -0.016
ADO (UniProt Q96SZ5) 0.005
ADH5 (UniProt P11766) 0.004
AIMP1 isoform 2 (UniProt Q12904) 0.066
ALDOA isoform 2 (UniProt P04075) 0.019
ADPRHL2 (UniProt Q9NX46) 0.003
ALG9 isoform 3 (UniProt Q9H6U8) -0.004

From the supplement of paper PMC10849652
